# Literature values as cited in patent publication US20220008447A1, “Rosacea Treatment Method” (priority 2019, published 2022).
# At least one structure is not confirmed: it was looked up by name or label, or the drawing left a doubt.
# Test system: rosacea
# Conditions: cited from earlier work; for number of pimples and pustules: tetracycline, low dose of doxycycline, low dose of minocycline
Structure (SMILES),number of pimples and pustules,"efficacy of low dose compared with 100 mg (low dose, 40 mg)"
CN(C)[C@@H]1C(O)=C(C(N)=O)C(=O)[C@@]2(O)C(O)=C3C(=O)c4c(O)cccc4[C@@](C)(O)[C@H]3C[C@@H]12 [tetracycline],reduced,–
CN(C)c1ccc(O)c2c1C[C@H]1C[C@H]3[C@H](N(C)C)C(O)=C(C(N)=O)C(=O)[C@@]3(O)C(O)=C1C2=O [minocycline],reduced,–
C[C@H]1c2cccc(O)c2C(=O)C2=C(O)[C@]3(O)C(=O)C(C(N)=O)=C(O)[C@@H](N(C)C)[C@@H]3[C@@H](O)[C@@H]21 [doxycycline],reduced,likely as effective as 100 mg
